Earlier results in patent US20240100038A1, “USE OF THE AXL INHIBITOR SLC-391 AS ANTIVIRAL THERAPEUTIC AGENT” (SignalChem Lifesciences Corporation, priority 2021, published 2024).
At least one structure is not confirmed: it was looked up by name or label, or the drawing left a doubt.

System: SARS-CoV-2
Details: SARS-CoV-2 (Bouhaddou 2020); read-out: IC50 antiviral activity; cited from earlier work

For `CCc1nc(C(N)=O)c(Nc2ccc(N3CCC(N4CCN(C)CC4)CC3)c(OC)c2)nc1NC1CCOCC1` [gilteritinib], the IC50 is listed as 807 nM.
